Source: patent US20090238838 (published 2009)

Experiment: peptide made by a vendor
Details: conjugation step, reverse phase HPLC

With “Des-Amino-Histidyl-GLP-1 (Lys27)-Immunoglobulin Fc Conjugate” the “final HPLC purity” value was 91.9%.
For “Des-Amino-Histidyl Exendin-4(Lys27)-Immunoglobulin Fc Conjugate”, the “final HPLC purity” value was 95.8%.
